The values that follow come from PMC7986551.

Protein sequences, listed by entry. Tags and fused reporters are not part of them.
UniProt P17676: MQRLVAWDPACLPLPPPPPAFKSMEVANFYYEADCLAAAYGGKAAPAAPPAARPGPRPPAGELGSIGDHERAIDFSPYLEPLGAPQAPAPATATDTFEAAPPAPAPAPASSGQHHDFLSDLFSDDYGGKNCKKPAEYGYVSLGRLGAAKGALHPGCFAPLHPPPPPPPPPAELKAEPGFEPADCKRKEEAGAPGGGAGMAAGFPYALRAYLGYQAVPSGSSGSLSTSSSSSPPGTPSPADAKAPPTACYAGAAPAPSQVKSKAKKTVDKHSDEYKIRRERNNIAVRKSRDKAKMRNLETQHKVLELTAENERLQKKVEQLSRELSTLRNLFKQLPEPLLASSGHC

In assay [1] the target is Flag-tagged C/EBPβ (UniProt P17676). The assay can be described thus: co-IP; anti-Flag antibody immunoprecipitates Flag-C/EBPβ from whole cell extracts of HEK293T cells co-expressing V5-ATAD2 and Flag-C/EBPβ; Protein A/G PLUS-Agarose, 4 °C overnight, 5 washes with PBS, western blot. (In general: In western blotting, separated proteins are transferred to a membrane and probed.)

The target of assay [2] is endogenous C/EBPβ (human (endogenous in KYSE510)) (UniProt P17676). The assay can be described thus: co-IP; endogenous proteins in KYSE510 cell lysate, immunoprecipitation with anti-C/EBPβ antibody (IgG as control); Protein A/G PLUS-Agarose, 4 °C overnight, 5 washes with PBS, western blot.

These are yes or no findings as the source states them, for the method shown. Binding seen in cells or lysates may run through a third protein. Some entries that bind do so weakly or less than the wild type. For some assays here: Tags and fused reporters may be left off the sequences shown.

B1: V5-tagged ATAD2 (protein, UniProt Q6PL18 1-1390)
chain: MVVLRSSLELHNHSAASATGSLDLSSDFLSLEHIGRRRLRSAGAAQKKPAATTAKAGDGSSVKEVETYHRTRALRSLRKDAQNSSDSSFEKNVEITEQLANGRHFTRQLARQQADKKKEEHREDKVIPVTRSLRARNIVQSTEHLHEDNGDVEVRRSCRIRSRYSGVNQSMLFDKLITNTAEAVLQKMDDMKKMRRQRMRELEDLGVFNETEESNLNMYTRGKQKDIQRTDEETTDNQEGSVESSEEGEDQEHEDDGEDEDDEDDDDDDDDDDDDDDEDDEDEEDGEEENQKRYYLRQRKATVYYQAPLEKPRHQRKPNIFYSGPASPARPRYRLSSAGPRSPYCKRMNRRRHAIHSSDSTSSSSSEDEQHFERRRKRSRNRAINRCLPLNFRKDELKGIYKDRMKIGASLADVDPMQLDSSVRFDSVGGLSNHIAALKEMVVFPLLYPEVFEKFKIQPPRGCLFYGPPGTGKTLVARALANECSQGDKRVAFFMRKGADCLSKWVGESERQLRLLFDQAYQMRPSIIFFDEIDGLAPVRSSRQDQIHSSIVSTLLALMDGLDSRGEIVVIGATNRLDSIDPALRRPGRFDREFLFSLPDKEARKEILKIHTRDWNPKPLDTFLEELAENCVGYCGADIKSICAEAALCALRRRYPQIYTTSEKLQLDLSSINISAKDFEVAMQKMIPASQRAVTSPGQALSTVVKPLLQNTVDKILEALQRVFPHAEFRTNKTLDSDISCPLLESDLAYSDDDVPSVYENGLSQKSSHKAKDNFNFLHLNRNACYQPMSFRPRILIVGEPGFGQGSHLAPAVIHALEKFTVYTLDIPVLFGVSTTSPEETCAQVIREAKRTAPSIVYVPHIHVWWEIVGPTLKATFTTLLQNIPSFAPVLLLATSDKPHSALPEEVQELFIRDYGEIFNVQLPDKEERTKFFEDLILKQAAKPPISKKKAVLQALEVLPVAPPPEPRSLTAEEVKRLEEQEEDTFRELRIFLRNVTHRLAIDKRFRVFTKPVDPDEVPDYVTVIKQPMDLSSVISKIDLHKYLTVKDYLRDIDLICSNALEYNPDRDPGDRLIRHRACALRDTAYAIIKEELDEDFEQLCEEIQESRKKRGCSSSKYAPSYYHVMPKQNSTLVGDKRSDPEQNEKLKTPSTPVACSTPAQLKRKIRKKSNWYLGTIKKRRKISQAKDDSQNAIDHKIESDTEETQDTSVDHNETGNTGESSVEENEKQQNASESKLELRNNSNTCNIENELEDSRKTTACTELRDKIACNGDASSSQIIHISDENEGKEMCVLRMTRARRSQVEQQQLITVEKALAILSQPTPSLVVDHERLKNLLKTVVKKSQNYNIFQLENLYAVISQCIYRHRKDHDKTSLIQKMEQEVENFSCSR
In the case of B1, in assay [1], the binding entry is given as “binds”.

B2: endogenous ATAD2 (protein, UniProt Q6PL18 1-1390)
chain: B1 chain
Turning to B2, in assay [2], the binding entry was “binds”.
